Residue numbers refer to the chain shown, from its start. For at least one entry, the source does not settle the construct or the ends of the probe. For some of these results: Weaker means in comparison with the reference protein, sequence or condition of that experiment. Where a protein sequence is shown, tags need not be part of it.
Key:
Assay in all cases: enzyme reaction in vitro
[1] = test system: T1, BsmI R32D (Bacillus stearothermophilus NUB36); details: ds-DNA cleavage; protein in an extract; only the site is given
T1 sequence: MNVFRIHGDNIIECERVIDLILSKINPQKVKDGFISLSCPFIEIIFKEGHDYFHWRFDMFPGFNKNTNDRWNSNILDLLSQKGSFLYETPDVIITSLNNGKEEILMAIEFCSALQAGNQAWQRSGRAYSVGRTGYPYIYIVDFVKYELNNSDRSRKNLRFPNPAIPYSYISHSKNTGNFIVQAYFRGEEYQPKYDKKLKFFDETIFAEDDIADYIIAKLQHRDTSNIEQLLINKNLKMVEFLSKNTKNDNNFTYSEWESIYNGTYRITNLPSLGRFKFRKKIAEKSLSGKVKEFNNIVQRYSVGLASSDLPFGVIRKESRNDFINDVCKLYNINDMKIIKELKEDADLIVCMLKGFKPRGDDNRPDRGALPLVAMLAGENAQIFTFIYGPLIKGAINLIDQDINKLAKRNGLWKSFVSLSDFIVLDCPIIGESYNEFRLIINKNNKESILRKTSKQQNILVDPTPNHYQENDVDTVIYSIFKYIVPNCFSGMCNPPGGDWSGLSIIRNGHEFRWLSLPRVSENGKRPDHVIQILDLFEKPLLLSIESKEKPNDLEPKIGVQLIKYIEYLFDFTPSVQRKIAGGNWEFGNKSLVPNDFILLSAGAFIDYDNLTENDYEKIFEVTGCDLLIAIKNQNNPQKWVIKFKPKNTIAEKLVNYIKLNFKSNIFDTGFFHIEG

[2] = test system: T2, BsmI R438D (Bacillus stearothermophilus NUB36); details: ds-DNA cleavage; protein in an extract; only the site is given
T2 sequence: T1 sequence with D32R, R438D

[3] = test system: T3, BsmI R123D (Bacillus stearothermophilus NUB36); details: low nicking activity; protein in an extract; only the site is given
T3 sequence: T1 sequence with D32R, R123D

[4] = test system: T4, Nb.BsmI (E546V) (Bacillus stearothermophilus NUB36); details: nicking higher than triple mutant; ds-DNA cleavage about 10%; bottom strand ^GCATTC; purified recombinant protein; protein details: also assayed as crude cell extract; only the site is given
T4 sequence: T1 sequence with D32R, E546V

GCATTC [pBR322 supercoiled plasmid (one BsmI site)]
activity on this sequence [1]: active
activity on this sequence [2]: active
activity on this sequence [3]: less active
activity on this sequence [4]: active

— patent publication US20080213860
